Reference: patent publication US7420043B2, “Reagents for detecting efavirenz” (priority 2003, dated 2008)
Some entries share one result that the patent states for a list of compounds. At least one compound was matched to its structure with a doubt left.

Test system: monoclonal antibody EFA 97.1
Assay: Cross-reactivity assay (competitive ELISA, ED50 ratio)
Format: binding, mouse
Details: antibody EFA 97.1, statement in text
Source text: Supernatants were subjected to serial dilutions and retested in the ELISA screen above omitting the competitive inhibition with free drug. The dilution providing for approximately a 50% reduction from the maximum OD was chosen for proceeding to cross-reactivity testing. This comprised repeating the preceding assay with the antibody at the chosen dilution and in the presence of varying concentrations of different drugs. FIG. 8 presents the results of such a determination.

SMILES | cross-reactivity with other commonly co-administered drugs
Cc1cccc(C)c1OCC(=O)N[C@@H](Cc1ccccc1)[C@@H](O)C[C@H](Cc1ccccc1)NC(=O)[C@H](C(C)C)N1CCCNC1=O [lopinavir] | less than 1%
CC(C)(C)NC(=O)[C@@H]1CN(Cc2cccnc2)CCN1C[C@@H](O)C[C@@H](Cc1ccccc1)C(=O)N[C@H]1c2ccccc2C[C@H]1O [indinavir] | less than 1%
Cc1cn([C@H]2C=C[C@@H](CO)O2)c(=O)[nH]c1=O [2′,3′-didehydro-3′-deoxythymidine] | less than 1%
CC(C)c1nc(CN(C)C(=O)N[C@H](C(=O)N[C@@H](Cc2ccccc2)C[C@H](O)[C@H](Cc2ccccc2)NC(=O)OCc2cncs2)C(C)C)cs1 [ritonavir] | less than 1%
CC(C)CN(C[C@@H](O)[C@H](Cc1ccccc1)NC(=O)O[C@H]1CCOC1)S(=O)(=O)c1ccc(N)cc1 [amprenavir] | less than 1%
CC(C)Nc1cccnc1N1CCN(C(=O)c2cc3cc(NS(C)(=O)=O)ccc3[nH]2)CC1 [delaviridine] | less than 1%
Cc1c(O)cccc1C(=O)N[C@@H](CSc1ccccc1)[C@H](O)CN1C[C@H]2CCCC[C@H]2C[C@H]1C(=O)NC(C)(C)C [nelfinavir] | less than 1%
Cc1ccnc2c1NC(=O)c1cccnc1N2C1CC1 [nevirapine] | less than 1%
Cc1cn([C@H]2C[C@H](N=[N+]=[N-])[C@@H](CO)O2)c(=O)[nH]c1=O [3′-azido-3′-deoxythymidine] | less than 1%
CC(C)(C)NC(=O)[C@@H]1C[C@@H]2CCCC[C@@H]2CN1C[C@@H](O)[C@H](Cc1ccccc1)NC(=O)[C@H](CC(N)=O)NC(=O)c1ccc2ccccc2n1 [saquinavir] | less than 1%
COC(=O)N[C@H](C(=O)N[C@@H](Cc1ccccc1)[C@@H](O)CN(Cc1ccc(-c2ccccn2)cc1)NC(=O)[C@@H](NC(=O)OC)C(C)(C)C)C(C)(C)C [atazanavir] | less than 1%
